Assay results as given in patent US20230183364A1.
Results are given in words; binding and its absence hold for the method and conditions named. Some entries that bind do so weakly or less than the wild type.

Protein sequences, listed by entry. Tags and fused reporters are not part of them. Lines headed by an entry give the natural chain unless they say otherwise; changes in a name come on top. Residues count along the entry.
UniProt Q14627: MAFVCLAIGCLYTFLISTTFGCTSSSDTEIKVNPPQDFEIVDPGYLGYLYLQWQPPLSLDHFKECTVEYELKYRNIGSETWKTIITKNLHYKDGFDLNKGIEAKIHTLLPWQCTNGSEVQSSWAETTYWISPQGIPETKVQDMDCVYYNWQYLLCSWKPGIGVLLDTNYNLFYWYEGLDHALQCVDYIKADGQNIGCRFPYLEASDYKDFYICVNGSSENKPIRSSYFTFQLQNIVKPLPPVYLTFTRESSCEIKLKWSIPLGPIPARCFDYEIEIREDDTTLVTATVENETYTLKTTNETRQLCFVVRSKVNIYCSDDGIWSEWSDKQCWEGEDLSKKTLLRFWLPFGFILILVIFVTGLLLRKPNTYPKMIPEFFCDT
UniProt P35225, residues 35-146: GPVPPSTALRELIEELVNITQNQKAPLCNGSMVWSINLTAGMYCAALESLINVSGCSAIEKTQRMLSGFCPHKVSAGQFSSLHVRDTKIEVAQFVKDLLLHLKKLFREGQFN

Biological target: Biotinylated human IL13Rα2 (hIL13Rα2-avi) (human) (UniProt Q14627)
Assay: SPR, hIL13Rα2-avi pre-incubated with IL-13

binding: binds
Substance: human IL-13 (Prospec #cyt-446) (from UniProt P35225 35-146) (ligand)
